{"source": "patent US4968494A", "about": "“Methods and compositions for thrombolytic therapy” (Merck & Co., Inc., priority 1990, dated 1990)", "test_system": "blood clots", "assay": "in vitro clot lysis assay (TPA-catalyzed lysis of ^125 I-fibrin labelled clot)", "assay_type": "biochemical", "conditions": "no exogenous plasminogen; physiological and pharmacological levels of TPA; FIG. 3; inhibitor concentration not stated", "description": "In the assay, whole blood or plasma is charged with ^125 I-fibrinogen. Thrombin is added to initiate clot formation and subsequently incubated for 2 hours to complete the cross-linking by endogenous Factor XIII. Factor XIIIa inhibitor is added prior to clot initiation or at various times during the 2-hour incubation. At the end of this period, the labelled clot is washed and lysis is initiated by exogenous tissue plasminogen activator (TPA). Exogenous plasminogen is employed in some experiments. Endogenous plasminogen is used for others. Clot dissolution as a function of time is monitored by the release of solubilized ^125 I-fibrin-derived fragments.\nIn FIGS. 1 and 2, the open symbols indicate absence of cerulenin and the closed symbols indicate the presence of 200μM cerulenin at the time of clot formation. Clot lysis is conducted in buffer, pH 7.5; 5 ng/mL TPA represents approximate physiologic concentration. 50 to […] represents pharmacologic concentration range. […] FIG. 2 studies employed glu-plasminogen levels at approximately 10 percent physiologic level (12μ/mL)", "note": "At least one structure is not confirmed: it was looked up by name or label, or the drawing left a doubt.", "data": [{"smiles": "CC(=O)CSc1n[n+]2c(C)csc2s1", "note": "[Thiadiazolium perchlorate compound, 2-(1-acetonylthio)-5-methylthiazolo(2,3-b)-1,3,4-thiadiazolium perchlorate]", "values": [{"measurement": "rates and extents of lysis", "value": "enhanced rates and extents of lysis"}]}]}
